# From US8377886B2, “Use of gamma secretase inhibitors and notch pathway inhibitors for treatment and prevention of renal disease” (Albert Einstein College of Medicine of Yeshiva University, priority 2007, dated 2013)
# For at least one compound, name, drawing or mass did not settle the structure.
# System: ICN1
# Test: TGFβ induced increase of ICN1 levels in cultured podocytes, Western blot
# Format: cell-based, mouse
# Conditions: 5 ng/ml TGFβ; 100 nM GSI XX; 10 μM SB203580, PD or LY; GSI IX and GSI X data not shown
# Description: Infection of Podocytes. Cultivation of conditionally immortalized mouse podocytes was performed as described^41. Briefly, cells were propagated in the undifferentiated state on type1 collagen at 33° C. in RPMI 1640 in the presence of 10% FBS (Hyclone) and 20 U/ml interferon γ (Sigma Chemical Co., St Louis, Mo.). To induce differentiation, cells were maintained at 37° C. without interferon for 10 days. Podocytes were infected with MIGR-ICN1-EGFP (kind gift of Dr Warren Pear, University of Pennsylvania) or pBMN-EGFP (Orbigen) retrovirus. Briefly vectors were transfected into Phoenix Eco packaging cells (Orbigen) and supernatant was harvested 60-72 hrs after transfection. Podocytes were infected with virus containing supernatant (3-4 times, every 6 hours) in the presence of polybrene […]. After 24 hrs of infection, the medium was changed and cells were either treated with tamoxifen to induce ICN1 expression or left untreated. Infection efficiency was estimated under fluorescence microscope by the presence of GFP positive cells as it ranged from 70-80%.
# Western Blotting. Cells were lysed in RIPA buffer in the presence of protease and phosphatase inhibitors; equal amount (30 μg) of protein was loaded on 10% SDS gels. Gels were transferred to PVDF membranes (Bio-Rad), blocked in 5% milk and incubated with the primary antibody (1:1,000 dilution) overnight at 4° C. in 1% milk. […]
smiles,measurement,value
O=c1cc(N2CCOCC2)oc2c(-c3ccccc3)cccc12 [LY294002],TGFβ induced increase of ICN1 levels,not sensitive
